These results are taken from publication PMC2270906, “The CD81 Partner EWI-2wint Inhibits Hepatitis C Virus Entry” (PLoS ONE, 2008).

To fix the notation:
B1: EWI-2 (endogenous) (protein, UniProt Q969P0 28-613)
chain: REVLVPEGPLYRVAGTAVSISCNVTGYEGPAQQNFEWFLYRPEAPDTALGIVSTKDTQFSYAVFKSRVVAGEVQVQRLQGDAVVLKIARLQAQDAGIYECHTPSTDTRYLGSYSGKVELRVLPDVLQVSAAPPGPRGRQAPTSPPRMTVHEGQELALGCLARTSTQKHTHLAVSFGRSVPEAPVGRSTLQEVVGIRSDLAVEAGAPYAERLAAGELRLGKEGTDRYRMVVGGAQAGDAGTYHCTAAEWIQDPDGSWAQIAEKRAVLAHVDVQTLSSQLAVTVGPGERRIGPGEPLELLCNVSGALPPAGRHAAYSVGWEMAPAGAPGPGRLVAQLDTEGVGSLGPGYEGRHIAMEKVASRTYRLRLEAARPGDAGTYRCLAKAYVRGSGTRLREAASARSRPLPVHVREEGVVLEAVAWLAGGTVYRGETASLLCNISVRGGPPGLRLAASWWVERPEDGELSSVPAQLVGGVGQDGVAELGVRPGGGPVSVELVGPRSHRLRLHSLGPEDEGVYHCAPSAWVQHADYSWYQAGSARSGPVTVYPYMHALDTLFVPLLVGTGVALVTGATVLGTITCCFMKRLRKR
B2: EWI-2wint with the C-terminal FLAG epitope, produced by furin cleavage of EWI-2FLAG^fur in Huh-7 cells (domain or fragment)
chain: QAPTSPPRMTVHEGQELALGCLARTSTQKHTHLAVSFGRSVPEAPVGRSTLQEVVGIRSDLAVEAGAPYAERLAAGELRLGKEGTDRYRMVVGGAQAGDAGTYHCTAAEWIQDPDGSWAQIAEKRAVLAHVDVQTLSSQLAVTVGPGERRIGPGEPLELLCNVSGALPPAGRHAAYSVGWEMAPAGAPGPGRLVAQLDTEGVGSLGPGYEGRHIAMEKVASRTYRLRLEAARPGDAGTYRCLAKAYVRGSGTRLREAASARSRPLPVHVREEGVVLEAVAWLAGGTVYRGETASLLCNISVRGGPPGLRLAASWWVERPEDGELSSVPAQLVGGVGQDGVAELGVRPGGGPVSVELVGPRSHRLRLHSLGPEDEGVYHCAPSAWVQHADYSWYQAGSARSGPVTVYPYMHALDTLFVPLLVGTGVALVTGATVLGTITCCFMKRLRKR
B3: EWI-F (endogenous) (protein, UniProt Q9P2B2 26-879)
chain: VPTATLVRVVGTELVIPCNVSDYDGPSEQNFDWSFSSLGSSFVELASTWEVGFPAQLYQERLQRGEILLRRTANDAVELHIKNVQPSDQGHYKCSTPSTDATVQGNYEDTVQVKVLADSLHVGPSARPPPSLSLREGEPFELRCTAASASPLHTHLALLWEVHRGPARRSVLALTHEGRFHPGLGYEQRYHSGDVRLDTVGSDAYRLSVSRALSADQGSYRCIVSEWIAEQGNWQEIQEKAVEVATVVIQPSVLRAAVPKNVSVAEGKELDLTCNITTDRADDVRPEVTWSFSRMPDSTLPGSRVLARLDRDSLVHSSPHVALSHVDARSYHLLVRDVSKENSGYYYCHVSLWAPGHNRSWHKVAEAVSSPAGVGVTWLEPDYQVYLNASKVPGFADDPTELACRVVDTKSGEANVRFTVSWYYRMNRRSDNVVTSELLAVMDGDWTLKYGERSKQRAQDGDFIFSKEHTDTFNFRIQRTTEEDRGNYYCVVSAWTKQRNNSWVKSKDVFSKPVNIFWALEDSVLVVKARQPKPFFAAGNTFEMTCKVSSKNIKSPRYSVLIMAEKPVGDLSSPNETKYIISLDQDSVVKLENWTDASRVDGVVLEKVQEDEFRYRMYQTQVSDAGLYRCMVTAWSPVRGSLWREAATSLSNPIEIDFQTSGPIFNASVHSDTPSVIRGDLIKLFCIITVEGAALDPDDMAFDVSWFAVHSFGLDKAPVLLSSLDRKGIVTTSRRDWKSDLSLERVSVLEFLLQVHGSEDQDFGNYYCSVTPWVKSPTGSWQKEAEIHSKPVFITVKMDVLNAFKYPLLIGVGLSTVIGLLSCLIGYCSSHWCCKKEVQETRRERRRLMSMEMD

No constants are given. Whether binding was seen depends on the method and setting. Binding seen in cells or lysates may run through a third protein. Some binding calls cover weakened binding; strength is not graded here.

This assay addresses T1, CD81 (endogenous, human cells) (human (endogenous in Daudi, Ramos, Molt-4, 293T, Huh-7 and other cells)) (UniProt P60033).
T1 sequence: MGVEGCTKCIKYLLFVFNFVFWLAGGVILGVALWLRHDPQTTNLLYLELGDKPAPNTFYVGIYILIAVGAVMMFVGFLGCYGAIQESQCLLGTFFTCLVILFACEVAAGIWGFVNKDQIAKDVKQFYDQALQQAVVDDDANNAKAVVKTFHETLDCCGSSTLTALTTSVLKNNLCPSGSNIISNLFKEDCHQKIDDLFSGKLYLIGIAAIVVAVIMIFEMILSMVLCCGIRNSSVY
Put plainly: co-IP; surface-biotinylated cells lysed in Bj/EDTA (1% Brij97, 2 mM EDTA), immunoprecipitation with mAbs on rabbit anti-mouse protein A beads 2 h at 4°C, blot with HRP-conjugated streptavidin.
B1: the binding entry is listed as “binds”.
The entry for B2 is “binds”; for B3 it is “binds”.
